Measurements reported in PMC8137831.
Results are given in words; binding and its absence hold for the method and conditions named. In cells and extracts the contact can be indirect. Some entries that bind do so weakly or less than the wild type. Tags and fused reporters may be left off the sequences shown.

Amino acid sequences for entries named in this document (tags omitted). Residues count along the entry.
UniProt Q9QUK6, residues 26-835: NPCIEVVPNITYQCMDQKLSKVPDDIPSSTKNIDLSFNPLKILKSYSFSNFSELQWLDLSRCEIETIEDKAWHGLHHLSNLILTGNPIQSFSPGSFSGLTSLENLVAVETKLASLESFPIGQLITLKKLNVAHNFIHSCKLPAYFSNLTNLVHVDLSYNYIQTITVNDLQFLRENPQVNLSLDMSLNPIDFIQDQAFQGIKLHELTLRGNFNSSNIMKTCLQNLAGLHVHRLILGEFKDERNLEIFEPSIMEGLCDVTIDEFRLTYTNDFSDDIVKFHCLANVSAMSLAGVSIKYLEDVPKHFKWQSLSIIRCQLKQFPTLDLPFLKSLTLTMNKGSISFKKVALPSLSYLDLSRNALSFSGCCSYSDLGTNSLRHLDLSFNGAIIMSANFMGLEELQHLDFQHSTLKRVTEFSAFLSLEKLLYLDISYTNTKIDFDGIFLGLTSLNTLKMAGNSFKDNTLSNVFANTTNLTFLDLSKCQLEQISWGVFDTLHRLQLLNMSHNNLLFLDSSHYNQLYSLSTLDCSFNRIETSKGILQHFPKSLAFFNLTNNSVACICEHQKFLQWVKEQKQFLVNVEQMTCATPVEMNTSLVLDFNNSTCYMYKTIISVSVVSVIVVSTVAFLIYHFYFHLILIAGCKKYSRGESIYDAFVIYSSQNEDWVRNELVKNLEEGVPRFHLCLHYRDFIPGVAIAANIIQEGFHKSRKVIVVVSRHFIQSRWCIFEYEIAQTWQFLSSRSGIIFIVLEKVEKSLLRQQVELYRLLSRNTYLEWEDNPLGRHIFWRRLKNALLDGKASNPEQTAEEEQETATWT

Target: HA-TLR4 (UniProt Q9QUK6)
Test: co-IP; bone marrow-derived macrophages cotransfected with psicoR-HA-TLR4 and psicoRFlag-CTRP1 or psicoRFlag-Adipo R1; lysates pre-treated with Protein G Plus/Protein A agarose, incubated with antibodies against HA or Flag, precipitated with Protein G Plus/Protein A agarose, SDS-PAGE; for Adipo R1 with TLR4 also with CTRP1 (interaction enhanced)

binding	Binder
binds	Flag-Adipo R1 (receptor, UniProt Q91VH1 1-375) MSSHKGSAGAQGNGAPSGNREADTVELAELGPLLEEKGKRAASSPAKAEEDQACPVPQEEEEEVRVLTLPLQAHHAMEKMEEFVYKVWEGRWRVIPYDVLPDWLKDNDYLLHGHRPPMPSFRACFKSIFRIHTETGNIWTHLLGFVLFLFLGILTMLRPNMYFMAPLQEKVVFGMFFLGAVLCLSFSWLFHTVYCHSEKVSRTFSKLDYSGIALLIMGSFVPWLYYSFYCSPQPRLIYLSIVCVLGISAIIVAQWDRFATPKHRQTRAGVFLGLGLSGVVPTMHFTIAEGFVKATTVGQMGWFFLMAVMYITGAGLYAARIPERFFPGKFDIWFQSHQIFHVLVVAAAFVHFYGVSNLQEFRYGLEGGCTDDSLL
no binding	Flag-CTRP1 (protein, UniProt Q9QXP7 26-281) LVPRVQEEQQEWEETEELPSPLDPVTRPEETREKYSPRQGEDLPTSRCYRCCDPSTPVYQTIPPPQINITILKGEKGDRGDRGLQGKYGKIGSTGPRGHVGPKGQKGSIGAPGNHCKSQYAAFSVGRKKALHSNDYFQPVVFDTEFVNLYKHFNMFTGKFYCYVPGIYFFSLNVHTWNQKETYLHIMKNEEEVVILYAQVSDRSIMQSQSLMMELREEDEVWVRLFKGERENAIFSDEFDTYITFSGYLVKPASEP
